# Measurements reported in publication PMC7819943, “Rice protein-binding microarrays: a tool to detect cis-acting elements near promoter regions in rice”.
# The list shows a part of the results.
# Target: T1, OsSMF1 (Oryza sativa, UniProt Q6ZLB0 1-436)
# T1 sequence: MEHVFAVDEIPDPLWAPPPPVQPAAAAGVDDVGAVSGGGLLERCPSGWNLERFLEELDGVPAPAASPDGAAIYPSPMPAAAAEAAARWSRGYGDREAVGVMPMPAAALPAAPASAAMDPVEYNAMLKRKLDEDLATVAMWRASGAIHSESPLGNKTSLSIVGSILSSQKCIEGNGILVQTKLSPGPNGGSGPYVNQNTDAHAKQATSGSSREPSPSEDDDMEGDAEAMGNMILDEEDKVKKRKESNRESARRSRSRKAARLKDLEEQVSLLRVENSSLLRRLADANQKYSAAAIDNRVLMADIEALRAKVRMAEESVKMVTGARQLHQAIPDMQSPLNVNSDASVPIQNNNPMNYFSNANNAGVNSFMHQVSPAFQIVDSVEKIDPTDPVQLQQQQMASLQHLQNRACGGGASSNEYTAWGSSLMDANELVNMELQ
# Assay: protein-binding microarray (RPBM); PBS, 2% BSA, 51.3 ng/ul salmon testes DNA, 50 uM zinc acetate, 200 nM TF, 25 C, 1 h; high values mean tight binding
# Conditions: protein: recombinant; tags: N-terminal polyhistidine and DsRed monomer fusion (pET32a); chain copies: 2; label: CyDye5-dUTP incorporated in the synthesized complementary strand; 3' TTTTT single-stranded linker to array surface; dsDNA, one strand shown
# Method in brief: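 An Axon 4000B scanner gave the binding signal as per-feature fluorescence intensity in arbitrary units. This followed washing of a custom Agilent array that had been incubated for 1 h at 25 °C with 200 nM protein in PBS, 2% BSA, salmon testes DNA and 50 µM zinc acetate. The proteins were transcription factors fused at the N-terminus to polyhistidine and DsRed, expressed in E. coli BL21-CodonPlus and purified on Ni–NTA.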
row,Sequence,binding signal
1,CGAGAGAAACCTATGACGTCTGTAAATACCCTCCTTATTACGGAGTCACCTAGTGCAG,3700 fluorescence intensity (a.u.)
2,TCCGACCTCTACCATAAGACACATAAGATGATGGGGCAGACGGAGTCACCTAGTGCAG,4050 fluorescence intensity (a.u.)
3,CAAAATGCTTTGACTGGATAGGATAAAACCATCTGGCCGCCGGAGTCACCTAGTGCAG,3140 fluorescence intensity (a.u.)
4,GCCTAACCCTAACCCTAGCCGCCACCGCTCAACCGCCTCCCGGAGTCACCTAGTGCAG,65100 fluorescence intensity (a.u.)
5,GCCGCGCAATGACACGCTGGCACCTGGCCACGCGCCACGTCGGAGTCACCTAGTGCAG,9110 fluorescence intensity (a.u.)
6,TCTGTAATCATCATCTTATTATCATCAACGGATGCATTGGCGGAGTCACCTAGTGCAG,32700 fluorescence intensity (a.u.)
7,TACTGAGTATTACTCCCTCTGTTTTAAAATGGTTGACACCCGGAGTCACCTAGTGCAG,20700 fluorescence intensity (a.u.)
8,ATTGTTCTCACAGCTCATTACACATAGCCCGCTCGGTCATCGGAGTCACCTAGTGCAG,3610 fluorescence intensity (a.u.)
9,CTCCCCTCCTCTCTCCTCTCCATTCCTCCTCGCTTCGACACGGAGTCACCTAGTGCAG,21900 fluorescence intensity (a.u.)
10,TCGATTTCAGTGACGTCTCGCTCGATCTCGTCAGCTTTCCCGGAGTCACCTAGTGCAG,4280 fluorescence intensity (a.u.)
11,TAGTTTCACTTATTATTTATTTCAGTAAAAGAAAGTTTCCCGGAGTCACCTAGTGCAG,3690 fluorescence intensity (a.u.)
12,GCAGCAGCTGCGTTGTCATCGTCCTCGTGTGCGGCTGGCCCGGAGTCACCTAGTGCAG,6820 fluorescence intensity (a.u.)
13,ATACAAGCACCTCCATTGCAAGTTCCCAACACATATGCTACGGAGTCACCTAGTGCAG,3190 fluorescence intensity (a.u.)
14,GTGGATGTGATCCGCATGATTGATGTCATCATGAATATATCGGAGTCACCTAGTGCAG,3740 fluorescence intensity (a.u.)
15,GTGAAGGCGAGACGGGGAAGAGGAGACTGCGTGGCGCCGCCGGAGTCACCTAGTGCAG,3550 fluorescence intensity (a.u.)
16,CTTTATTAACGGTGTGGGGACTGGGGATTGGCTGAGGACGCGGAGTCACCTAGTGCAG,3310 fluorescence intensity (a.u.)
17,TCTCTCTCTCTGTGTCAATGACAGGTGGGCCCCGTTCGTCCGGAGTCACCTAGTGCAG,4480 fluorescence intensity (a.u.)
18,CATAGATTACGTGTAAATTACAATGCGAATCTTTTAAACCCGGAGTCACCTAGTGCAG,8160 fluorescence intensity (a.u.)
19,GTCGTTTCACAACTCACGCGTACACCGTGTGTCCTCACCACGGAGTCACCTAGTGCAG,3670 fluorescence intensity (a.u.)
20,CTACTCCCCAGCAATGACACGTTCTCCCAGAGAGCCAATTCGGAGTCACCTAGTGCAG,4870 fluorescence intensity (a.u.)
21,GTGGCAAGTGCACCCACGTTAGGGCAGTCCCAACCCTCCACGGAGTCACCTAGTGCAG,3370 fluorescence intensity (a.u.)

row,Sequence,binding signal
1,CTTTCGTACGACTCGTCATTATCACCGTGTCTCTCGTAAGCGGAGTCACCTAGTGCAG,4540 fluorescence intensity (a.u.)
2,ACGACGACCGGGCACCATCTCCGGCCGGCCGGGCACGGGCCGGAGTCACCTAGTGCAG,24300 fluorescence intensity (a.u.)
3,CGCACGCACACCGGCGGCGTACGTGCAATCGTGCACCACCCGGAGTCACCTAGTGCAG,3700 fluorescence intensity (a.u.)
4,AGCACACATCTACGCTTACATGTGTATACGTATGCTTACGCGGAGTCACCTAGTGCAG,3870 fluorescence intensity (a.u.)
5,ACTGGATCAACTGTTGACGAGATTATGAGCTATGCAATTTCGGAGTCACCTAGTGCAG,3200 fluorescence intensity (a.u.)
6,GTGGACGATGCCTCCCTTCCTTTGACTCACCAGCTCTTGTCGGAGTCACCTAGTGCAG,6740 fluorescence intensity (a.u.)
7,TACGCCGTTACGTGGTATGGTGTTGTGCCATTTCAGTCGGCGGAGTCACCTAGTGCAG,3500 fluorescence intensity (a.u.)
8,AGTTTCTACTGGATTATATTGTTGTTATATTGCATCATCACGGAGTCACCTAGTGCAG,3880 fluorescence intensity (a.u.)
9,GAGCTCGAGCAATCCGCCGTCCGTGTCGTCGTCGTCGGCGCGGAGTCACCTAGTGCAG,3480 fluorescence intensity (a.u.)
10,ATGGTTCGTGCGGACTCGGCGTCGGTGAGGTGGGCGGGCTCGGAGTCACCTAGTGCAG,3270 fluorescence intensity (a.u.)
11,TAGGCGTGACACTGAAGTGGCGTGCGAATCCACTTGCTCTCGGAGTCACCTAGTGCAG,20700 fluorescence intensity (a.u.)
12,CCCCACGTCGTCATCCGCAACCCGCCTACGCTAAGCAAAACGGAGTCACCTAGTGCAG,21600 fluorescence intensity (a.u.)
13,TTCCTTTGTAACTAGGCCAACTCAGCTTGGGTCTAGCCCACGGAGTCACCTAGTGCAG,3460 fluorescence intensity (a.u.)
14,TTCCATGGCATCCATGTCAACGTCATATCATTTGATTGTACGGAGTCACCTAGTGCAG,4440 fluorescence intensity (a.u.)
15,CGACCAATTACGCGCCGTACGTACGTGGAACACGGTCGAACGGAGTCACCTAGTGCAG,5190 fluorescence intensity (a.u.)
16,TTAAATGGTGGAGAGTTGTGATTGGTTGGGAATGTGATGTCGGAGTCACCTAGTGCAG,6030 fluorescence intensity (a.u.)
17,GCCAAATTGTCACCACTTAAGTTGGTGGGTGAGGTTTAACCGGAGTCACCTAGTGCAG,3140 fluorescence intensity (a.u.)
18,GTGCCTACAGATAGAAGTAGGTGTCCCATCATCACTCCATCGGAGTCACCTAGTGCAG,3510 fluorescence intensity (a.u.)
19,TCAAAGTTGTAGACAATCACACGTGTGATGACTTGCGACACGGAGTCACCTAGTGCAG,7890 fluorescence intensity (a.u.)
20,CCAGGAGGCAAGTAGGCAACGTCAGAGAATCCAAGCAGAGCGGAGTCACCTAGTGCAG,3450 fluorescence intensity (a.u.)
21,ACGGGCCGTGCTTGGGCCAGCGGCTCGGCACGTGGGCCGGCGGAGTCACCTAGTGCAG,3480 fluorescence intensity (a.u.)

# 8 successive records out of the list so far, quoted:
row,Sequence,binding signal
9,GAGCTCGAGCAATCCGCCGTCCGTGTCGTCGTCGTCGGCGCGGAGTCACCTAGTGCAG,3480 fluorescence intensity (a.u.)
10,ATGGTTCGTGCGGACTCGGCGTCGGTGAGGTGGGCGGGCTCGGAGTCACCTAGTGCAG,3270 fluorescence intensity (a.u.)
11,TAGGCGTGACACTGAAGTGGCGTGCGAATCCACTTGCTCTCGGAGTCACCTAGTGCAG,20700 fluorescence intensity (a.u.)
12,CCCCACGTCGTCATCCGCAACCCGCCTACGCTAAGCAAAACGGAGTCACCTAGTGCAG,21600 fluorescence intensity (a.u.)
13,TTCCTTTGTAACTAGGCCAACTCAGCTTGGGTCTAGCCCACGGAGTCACCTAGTGCAG,3460 fluorescence intensity (a.u.)
14,TTCCATGGCATCCATGTCAACGTCATATCATTTGATTGTACGGAGTCACCTAGTGCAG,4440 fluorescence intensity (a.u.)
15,CGACCAATTACGCGCCGTACGTACGTGGAACACGGTCGAACGGAGTCACCTAGTGCAG,5190 fluorescence intensity (a.u.)
16,TTAAATGGTGGAGAGTTGTGATTGGTTGGGAATGTGATGTCGGAGTCACCTAGTGCAG,6030 fluorescence intensity (a.u.)
